For at least one compound, name, drawing or mass did not settle the structure.
System: pooled normal plasma
Assay: Iron-enhanced coagulation detection assay (MRTG without and with deferoxamine)
Format: biochemical, human
Settings: deferoxamine 5.6 mM, 15 min at 37° C.; difference in means of 10 replicates plus two SD

## CC(=O)N(O)CCCCCNC(=O)CCC(=O)N(O)CCCCCNC(=O)CCC(=O)N(O)CCCCCN [Deferoxamine, deferoxamine]
  normal, nonspecific decrease in MRTG secondary to deferoxamine exposure: 1.2 dynes/cm2/sec

Source: patent US10012659B2, “Methods for diagnosing iron-related pathologies” (priority 2014, dated 2018)
